{"source": "PubChem BioAssay (NCATS)", "note": "This is one part of the list. The main result of the screen is listed elsewhere. These columns were measured beside it and carry no call. Most of these compounds were active or inconclusive in the main read-out, so they are no random draw. Potencies come from curve fits of mixed quality, noted in brackets.", "data": [{"experiment": "qHTS Assay for Inhibitors of PDE-IV (AID 607)", "conditions": "HEK293 ACTOne CNG channel cells, membrane potential fluorescence; measured here: parental cell counter-screen", "method_in_brief": "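HEK293 ACTOne cells with CNG channel (1000/well), endogenous PDE4; membrane potential dye, compounds up to 22.9 uM final. Fluorescence Ex 535/Em 590; RO 20-1724 (100 uM final) as reference.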", "values": [{"compound": "COC(=O)[C@H](C)[C@@H]1C[C@@]1(C)[C@@H](NC(=O)OCc1ccccc1)c1ccccc1", "AC50": "15.8 µM [rising, single point]"}, {"compound": "COC(=O)[C@@]1(Cc2ccccc2)[C@H]2c3cc(C(=O)N(C)C)n(Cc4ccc(OC)c(OC)c4)c3C[C@H]2CN1C(=O)c1ccccc1", "AC50": "12.6 µM [rising, single point]"}, {"compound": "O=C(c1cccc(F)c1)N1CCC2(CCCN(c3ccccn3)C2)CC1", "AC50": "10 µM [rising, single point]"}, {"compound": "CN1[C@H](CC(=O)c2ccccc2)CCC[C@H]1C[C@H](O)c1ccccc1", "AC50": "15.8 µM [rising, partial curve, poor fit]"}, {"compound": "O=C(O)CCC/C=C\\C[C@@H]1CO[C@H](C(F)(F)F)O[C@@H]1c1ccccc1O", "AC50": "15.8 µM [rising, partial curve]"}, {"compound": "Cn1cccc1C(=O)N1CCC[C@@]2(CCN(c3ccccn3)C2)C1", "AC50": "3.98 µM [rising, single point]"}, {"compound": "COc1ccc(NC(=O)N2CCCC3(CCN(C(=O)c4c(C)noc4C)CC3)C2)cc1", "AC50": "0.631 µM [rising, single point]"}, {"compound": "COc1cccc(-c2nc(NCc3ccccc3)c3ccccc3n2)c1", "AC50": "12.6 µM [rising, single point]"}, {"compound": "CCCCC[C@H](O)/C=C\\[C@@H]1[C@H](O)CC(=O)[C@@H]1CCCCCCC(=O)O", "AC50": "0.794 µM [rising, partial curve, poor fit]"}, {"compound": "CC[C@@]12CCCN3CCc4c(n(c5ccccc45)C(=O)C1)[C@H]32", "AC50": "15.8 µM [rising, partial curve]"}, {"compound": "CCCC[C@@H]1C[C@H]1C(NC(=O)c1ccccc1)c1ccccc1C(F)(F)F", "note": "(stereo not given in full)", "AC50": "3.16 µM [rising, full curve]"}, {"compound": "CCCC[C@@H]1C[C@H]1C(NC(=O)c1cccs1)c1ccc(C(F)(F)F)cc1", "note": "(stereo not given in full)", "AC50": "12.6 µM [rising, partial curve]"}, {"compound": "C[C@@H](C(=O)N[C@@H](CO)Cc1ccccc1)[C@H]1C[C@]1(C)[C@H](NC(=O)OCc1ccccc1)c1ccccc1", "AC50": "10 µM [rising, single point]"}, {"compound": "CCCC[C@@H]1C[C@H]1C(NC(=O)c1ccco1)c1ccccc1C(F)(F)F", "note": "(stereo not given in full)", "AC50": "7.94 µM [rising, partial curve]"}, {"compound": "COCC(=O)N1CCC2(CC1)CCN(c1ccncc1)CC2", "AC50": "0.00631 µM [falling, full curve, poor fit]"}, {"compound": "O=C(O)Cc1ccc(-c2ccccc2)cc1", "AC50": "0.316 µM [rising, full curve]"}, {"compound": "O=C(c1cc(C(F)(F)F)cc(C(F)(F)F)c1)N1CCC2(CC1)CCN(c1ccncc1)CC2", "AC50": "12.6 µM [rising, partial curve]"}]}, {"experiment": "S16 Schwann cell PMP22 intronic element beta-lactamase assay (AID 624044)", "conditions": "S16 rat Schwann cells, PMP22 element beta-lactamase FRET, 24 h; measured here: 460 nm blue channel", "method_in_brief": "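Rat S16 Schwann cells with beta-Lac driven by a PMP22 intronic element, compound-treated 24 h at 37 °C. LiveBLAzer FRET B/G read: 460 nm normalized to potassium clavulanate vs DMSO; 535 nm FRET as viability; concentration-effect curves classified.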", "values": [{"compound": "Nc1nc2[nH]cc(CCc3ccc(C(=O)NC(CCC(=O)O)C(=O)O)cc3)c2c(=O)[nH]1", "note": "(stereo not given)", "AC50": "0.0794 µM [falling, full curve, poor fit]"}, {"compound": "CCOC(CN1CCN(CC(C)C(=O)c2ccccc2)CC1)c1ccccc1", "note": "(stereo not given)", "AC50": "0.0199 µM [falling, full curve, poor fit]"}, {"compound": "CN(C)CCc1c[nH]c2ccc(Cn3cncn3)cc12", "AC50": "0.00631 µM [falling, full curve, poor fit]"}, {"compound": "CC(C)NC[C@H](O)c1cc(O)cc(O)c1", "AC50": "1.41 µM [falling, full curve, poor fit]"}, {"compound": "CCCCC(CC)COS(=O)(=O)O", "note": "(stereo not given)", "AC50": "12.6 µM [falling, single point]"}, {"compound": "CC(C)(C)NC[C@H](O)COc1cccc2c1CCCC2=O", "AC50": "0.000755 µM [falling, full curve]"}, {"compound": "CCCCC[C@H](O)/C=C\\[C@@H]1[C@H](O)CC(=O)[C@@H]1CCCCCCC(=O)O", "AC50": "0.0301 µM [falling, full curve, poor fit]"}, {"compound": "FC(F)OC(Cl)C(F)(F)F", "note": "(stereo not given)", "AC50": "9.99 µM [falling, full curve, poor fit]"}, {"compound": "CC[C@@]12CCCN3CCc4c(n(c5ccccc45)C(=O)C1)[C@H]32", "AC50": "6 µM [falling, partial curve, poor fit]"}, {"compound": "Nc1ccc2cc3ccc(N)cc3nc2c1", "AC50": "12.6 µM [falling, full curve, poor fit]"}, {"compound": "CCCSS/C(CCO)=C(/C)N(C=O)Cc1cnc(C)nc1N", "AC50": "1.26 µM [falling, full curve, poor fit]"}, {"compound": "Cc1ccc(S(=O)(=O)NC(=O)NC(C)Cc2ccccc2)cc1", "note": "(stereo not given)", "AC50": "0.891 µM [falling, full curve, poor fit]"}, {"compound": "OCC1(CO)COC(C(Cl)(Cl)Cl)OC1", "AC50": "15.8 µM [falling, single point]"}, {"compound": "COc1ccc(-c2cc(=S)ss2)cc1", "AC50": "0.0355 µM [falling, full curve, poor fit]"}, {"compound": "Oc1c(Br)cc(Br)c2cccnc12", "AC50": "15.8 µM [falling, partial curve]"}, {"compound": "COc1cc2c(cc1O)CCN[C@@]21CS[C@H]2c3c(OC(C)=O)c(C)c4c(c3C(COC1=O)N1C2C2c3c(cc(C)c(OC)c3O)CC([C@@H]1O)N2C)OCO4", "note": "(stereo not given in full)", "AC50": "0.00707 µM [falling, full curve, poor fit]"}, {"compound": "CCNC(=O)[C@@H]1CCCN1C(=O)[C@H](CCCN=C(N)N)NC(=O)[C@H](CC(C)C)NC(=O)[C@@H](Cc1c[nH]c2ccccc12)NC(=O)[C@H](Cc1ccc(O)cc1)NC(=O)[C@H](CO)NC(=O)[C@H](Cc1c[nH]c2ccccc12)NC(=O)[C@H](Cc1cnc[nH]1)NC(=O)[C@@H]1CCC(=O)N1", "AC50": "17.8 µM [falling, partial curve]"}, {"compound": "C[C@@H]1C(SC2Cn3cnc[n+]3C2)=C(C(=O)[O-])N2C(=O)[C@H]([C@@H](C)O)[C@@H]12", "note": "(stereo not given in full)", "AC50": "3.16 µM [falling, full curve, poor fit]"}, {"compound": "CCCCCCCCCCCCCCCCCCOCC(O)CO", "note": "(stereo not given)", "AC50": "3.55 µM [falling, partial curve, poor fit]"}, {"compound": "FCOC(C(F)(F)F)C(F)(F)F", "AC50": "0.891 µM [falling, full curve, poor fit]"}, {"compound": "CC(=O)OCC(=O)[C@@]1(O)[C@H](C)C[C@@H]2[C@H]3CCC4=CC(=O)C=C[C@]4(C)[C@]3(F)[C@@H](O)C[C@@]21C", "AC50": "1.9 µM [falling, full curve, poor fit]"}, {"compound": "NS(=O)(=O)c1cc(-c2nn[nH]n2)c(NCc2cccs2)cc1Cl", "AC50": "0.891 µM [falling, full curve, poor fit]"}, {"compound": "C[C@]12CCC(=O)C=C1CC[C@@H]1[C@@H]2[C@@H](O)C[C@@]2(C)[C@H]1CC[C@]2(O)C(=O)COP(=O)(O)O", "AC50": "8.91 µM [falling, partial curve, poor fit]"}]}]}
